{"source": "PubChem BioAssay AID1259405 (NCATS, 2018)", "screen": "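Knock-downs that lift recombinant protein yield in hamster ovary cells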 (primary screen)", "cells": "Chinese hamster CHO-K1 ovary cells with stable secreted eGFP expression", "reagents": "single siRNA against mouse genes, 0.8 pmol siRNA per well (2 µl of 400 nM stock)", "duration": "3 days", "measurement": "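Percent of the per-plate non-targeting control median for intracellular GFP per well by laser scanning cytometry and for cell viability by ATP luminescence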", "reading the numbers": "GFP, % of control: higher = more GFP per well, higher productivity; viability (ATP), % of control: higher = more viable cells (more ATP)", "call rule": "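Called active when intracellular GFP, relative to negative control, is at or above 120%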", "note": "Here is an unselected part of about 50,000 reagents. About 4,000 of all reagents (8%) were called active. 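Mouse siRNA library applied to hamster cells; one well for each siRNA.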"}
{"Gene": "Or51ah3", "PubChem SID": "SID363544818", "GFP, % of control": 18.1, "viability (ATP), % of control": 15.7, "Call": "inactive"}
{"Gene": "Or51ah3", "PubChem SID": "SID363551146", "GFP, % of control": 89.7, "viability (ATP), % of control": 100, "Call": "inactive"}
{"Gene": "Or51ah3", "PubChem SID": "SID363557695", "GFP, % of control": 52.3, "viability (ATP), % of control": 56.5, "Call": "inactive"}
{"Gene": "Bid", "PubChem SID": "SID363546919", "GFP, % of control": 68.2, "viability (ATP), % of control": 60.5, "Call": "inactive"}
{"Gene": "Bid", "PubChem SID": "SID363549731", "GFP, % of control": 90.8, "viability (ATP), % of control": 101, "Call": "inactive"}
{"Gene": "Bid", "PubChem SID": "SID363587785", "GFP, % of control": 86.9, "viability (ATP), % of control": 91, "Call": "inactive"}
{"Gene": "Aloxe3", "PubChem SID": "SID363568975", "GFP, % of control": 61.6, "viability (ATP), % of control": 99.5, "Call": "inactive"}
{"Gene": "Aloxe3", "PubChem SID": "SID363583407", "GFP, % of control": 67.2, "viability (ATP), % of control": 85.1, "Call": "inactive"}
{"Gene": "Akt3", "PubChem SID": "SID363570958", "GFP, % of control": 61.9, "viability (ATP), % of control": 85.1, "Call": "inactive"}
{"Gene": "Pola2", "PubChem SID": "SID363569286", "GFP, % of control": 118, "viability (ATP), % of control": 124, "Call": "inactive"}
{"Gene": "Pola2", "PubChem SID": "SID363583718", "GFP, % of control": 82.1, "viability (ATP), % of control": 87.2, "Call": "inactive"}
{"Gene": "As3mt", "PubChem SID": "SID363570615", "GFP, % of control": 86, "viability (ATP), % of control": 96.8, "Call": "inactive"}
{"Gene": "As3mt", "PubChem SID": "SID363579415", "GFP, % of control": 90.3, "viability (ATP), % of control": 178, "Call": "inactive"}
{"Gene": "As3mt", "PubChem SID": "SID363583287", "GFP, % of control": 126, "viability (ATP), % of control": 127, "Call": "active"}
{"Gene": "L3mbtl3", "PubChem SID": "SID363546113", "GFP, % of control": 94.7, "viability (ATP), % of control": 97.2, "Call": "inactive"}
{"Gene": "L3mbtl3", "PubChem SID": "SID363549626", "GFP, % of control": 138, "viability (ATP), % of control": 95.1, "Call": "active"}
{"Gene": "L3mbtl3", "PubChem SID": "SID363563432", "GFP, % of control": 58.5, "viability (ATP), % of control": 33.6, "Call": "inactive"}
{"Gene": "Vmn1r192", "PubChem SID": "SID363556757", "GFP, % of control": 39.5, "viability (ATP), % of control": 39, "Call": "inactive"}
{"Gene": "Vmn1r192", "PubChem SID": "SID363563661", "GFP, % of control": 118, "viability (ATP), % of control": 51.9, "Call": "inactive"}
{"Gene": "Vmn1r192", "PubChem SID": "SID363587207", "GFP, % of control": 90.9, "viability (ATP), % of control": 85.1, "Call": "inactive"}
{"Gene": "Or13p5", "PubChem SID": "SID363544438", "GFP, % of control": 107, "viability (ATP), % of control": 55.8, "Call": "inactive"}
{"Gene": "Or13p5", "PubChem SID": "SID363550766", "GFP, % of control": 96.4, "viability (ATP), % of control": 46.5, "Call": "inactive"}
{"Gene": "Or13p5", "PubChem SID": "SID363557315", "GFP, % of control": 57.5, "viability (ATP), % of control": 58.3, "Call": "inactive"}
{"Gene": "Dlg3", "PubChem SID": "SID363581962", "GFP, % of control": 50.3, "viability (ATP), % of control": 87.1, "Call": "inactive"}
{"Gene": "Dlg3", "PubChem SID": "SID363589456", "GFP, % of control": 101, "viability (ATP), % of control": 91.1, "Call": "inactive"}
{"Gene": "Or5p64", "PubChem SID": "SID363544517", "GFP, % of control": 89.4, "viability (ATP), % of control": 87.5, "Call": "inactive"}
{"Gene": "Or5p64", "PubChem SID": "SID363550845", "GFP, % of control": 60.9, "viability (ATP), % of control": 59.8, "Call": "inactive"}
{"Gene": "Or5p64", "PubChem SID": "SID363557394", "GFP, % of control": 67.4, "viability (ATP), % of control": 49.5, "Call": "inactive"}
{"Gene": "Zc3h14", "PubChem SID": "SID363543950", "GFP, % of control": 59.4, "viability (ATP), % of control": 51, "Call": "inactive"}
{"Gene": "Zc3h14", "PubChem SID": "SID363551686", "GFP, % of control": 21.1, "viability (ATP), % of control": 26.9, "Call": "inactive"}
{"Gene": "Zc3h14", "PubChem SID": "SID363559291", "GFP, % of control": 68.8, "viability (ATP), % of control": 74.1, "Call": "inactive"}
{"Gene": "Ndp", "PubChem SID": "SID363562171", "GFP, % of control": 127, "viability (ATP), % of control": 61.4, "Call": "active"}
{"Gene": "Ndp", "PubChem SID": "SID363567309", "GFP, % of control": 60.9, "viability (ATP), % of control": 83.8, "Call": "inactive"}
{"Gene": "Ndp", "PubChem SID": "SID363584666", "GFP, % of control": 68.5, "viability (ATP), % of control": 81.3, "Call": "inactive"}
{"Gene": "Pcdhb7", "PubChem SID": "SID363541832", "GFP, % of control": 84.4, "viability (ATP), % of control": 76.2, "Call": "inactive"}
{"Gene": "Pcdhb7", "PubChem SID": "SID363553424", "GFP, % of control": 46.5, "viability (ATP), % of control": 57.1, "Call": "inactive"}
{"Gene": "Pcdhb7", "PubChem SID": "SID363566748", "GFP, % of control": 86.5, "viability (ATP), % of control": 55.1, "Call": "inactive"}
{"Gene": "Foxn4", "PubChem SID": "SID363573203", "GFP, % of control": 85.5, "viability (ATP), % of control": 67.5, "Call": "inactive"}
{"Gene": "Foxn4", "PubChem SID": "SID363588442", "GFP, % of control": 45.7, "viability (ATP), % of control": 55.3, "Call": "inactive"}
{"Gene": "Scaf8", "PubChem SID": "SID363569627", "GFP, % of control": 147, "viability (ATP), % of control": 153, "Call": "active"}
{"Gene": "Scaf8", "PubChem SID": "SID363577371", "GFP, % of control": 104, "viability (ATP), % of control": 99.4, "Call": "inactive"}
{"Gene": "Scaf8", "PubChem SID": "SID363578779", "GFP, % of control": 69.5, "viability (ATP), % of control": 78.2, "Call": "inactive"}
{"Gene": "Ugt1a7c", "PubChem SID": "SID363545362", "GFP, % of control": 128, "viability (ATP), % of control": 68.3, "Call": "active"}
{"Gene": "Ugt1a7c", "PubChem SID": "SID363548875", "GFP, % of control": 72.8, "viability (ATP), % of control": 77.7, "Call": "inactive"}
{"Gene": "Ugt1a7c", "PubChem SID": "SID363562681", "GFP, % of control": 52.9, "viability (ATP), % of control": 51.3, "Call": "inactive"}
{"Gene": "Fbxw4", "PubChem SID": "SID363540089", "GFP, % of control": 76.3, "viability (ATP), % of control": 50.2, "Call": "inactive"}
{"Gene": "Fbxw4", "PubChem SID": "SID363561390", "GFP, % of control": 56.7, "viability (ATP), % of control": 42.7, "Call": "inactive"}
{"Gene": "Fbxw4", "PubChem SID": "SID363564426", "GFP, % of control": 164, "viability (ATP), % of control": 102, "Call": "active"}
{"Gene": "Vmp1", "PubChem SID": "SID363542491", "GFP, % of control": 125, "viability (ATP), % of control": 83.4, "Call": "active"}
{"Gene": "Vmp1", "PubChem SID": "SID363551982", "GFP, % of control": 67.3, "viability (ATP), % of control": 82.4, "Call": "inactive"}
{"Gene": "Vmp1", "PubChem SID": "SID363559587", "GFP, % of control": 72.7, "viability (ATP), % of control": 79.3, "Call": "inactive"}
{"Gene": "Cyp2c39", "PubChem SID": "SID363573004", "GFP, % of control": 48.2, "viability (ATP), % of control": 53.9, "Call": "inactive"}
{"Gene": "Cyp2c39", "PubChem SID": "SID363577580", "GFP, % of control": 92.8, "viability (ATP), % of control": 86.1, "Call": "inactive"}
{"Gene": "Cyp2c39", "PubChem SID": "SID363581100", "GFP, % of control": 71.7, "viability (ATP), % of control": 93, "Call": "inactive"}

Just “viability (ATP), % of control” (8 entries from above):
Or51ah3 [SID363551146] = 100
Or51ah3 [SID363557695] = 56.5
Bid [SID363546919] = 60.5
Bid [SID363549731] = 101
Bid [SID363587785] = 91
Aloxe3 [SID363568975] = 99.5
Aloxe3 [SID363583407] = 85.1
Akt3 [SID363570958] = 85.1
